Source: PubChem BioAssay AID1259425 (University of Nebraska Medical Center, 2018)
The whole screen tested about 14,000 reagents; shown is an unselected part. Further read-outs or replicates are left out here. Not given: the time to read-out.

- Test: 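Compare each knockdown with KSR1 silencing using changes in marker transcripts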 (primary screen)
- Cell system: HCT116 human colon cancer cells
- Reagent: siRNA pool against human genes, 50 nM siRNA
- Read-out: 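After 50 nM siRNA pool, branched-DNA assay measures six marker transcripts per well, minus blank, normalised to the geometric mean of two housekeeping transcripts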
- Scale: BNIP3L mRNA: higher = more BNIP3L transcript after knockdown; NDRG1 mRNA: higher = more NDRG1 transcript after knockdown; BNIP3 mRNA: higher = more BNIP3 transcript after knockdown; ALDOC mRNA: higher = more ALDOC transcript after knockdown

| gene symbol | BNIP3L mRNA, set 1 | NDRG1 mRNA, set 1 | BNIP3 mRNA, set 1 | ALDOC mRNA, set 1 |
| --- | --- | --- | --- | --- |
| RIMS2 | 0.347 | 0.117 | 0.402 | 0.0519 |
| PYROXD2 | 0.164 | 0.191 | 0.338 | 0.073 |
| TRIL | 0.143 | 0.513 | 0.25 | 0.0147 |
| MEOX1 | 0.0738 | 0.132 | 0.287 | 0.0112 |
| FADS1 | 0.109 | 0.303 | 0.338 | 0.0192 |
| MICAL1 | 0.138 | 0.297 | 0.313 | 0.0704 |
| SETD7 | 0.0908 | 0.267 | 0.221 | 0.0544 |
| ADAM8 | 0.164 | 0.982 | 0.339 | 0.0808 |
| TNFRSF4 | 0.0653 | 0.191 | 0.193 | 0.00591 |
| TTC39A | 0.0356 | 0.254 | 0.123 | 0.028 |
| COPS8 | 0.167 | 0.383 | 0.23 | 0.0358 |
| CIP2A | 0.0694 | 0.553 | 0.2 | 0.0129 |
| GAS2 | 0.0407 | 0.08 | 0.291 | 0.0165 |
| B4GALNT1 | 0.098 | 0.121 | 0.426 | 0.0196 |
| NRSN2 | 0.155 | 0.426 | 0.437 | 0.028 |
| ALOX15 | 0.121 | 0.631 | 0.372 | 0.0415 |
| ZNF136 | 0.0638 | 0.058 | 0.249 | 0.00285 |
| FBF1 | 0.243 | 0.485 | 0.306 | 0.132 |
| PAGE4 | 0.147 | 0.373 | 0.554 | 0.0165 |
| FANCD2 | 0.14 | 0.265 | 0.212 | 0.0266 |
| NPFF | 0.133 | 0.359 | 0.306 | 0.0155 |
| ADSS1 | 0.0566 | 0.129 | 0.295 | 0.0119 |
| DRAM1 | 0.0892 | 0.164 | 0.355 | 0.0235 |
| ELOA | 0.101 | 0.12 | 0.303 | 0.0239 |
| TNFAIP2 | 0.088 | 0.274 | 0.344 | 0.025 |
| ARHGAP19 | 0.109 | 0.393 | 0.218 | 0.0121 |
| TCF7 | 0.103 | 0.167 | 0.254 | 0.00254 |
| MUSK | 0.0514 | 0.306 | 0.34 | 0.00635 |
| STRIP2 | 0.0863 | 0.22 | 0.218 | 0.0342 |
| KLHL4 | 0.0508 | 0.0937 | 0.157 | 0.0143 |
| INS | 0.0672 | 0.0861 | 0.243 | 0.0152 |
| RPL36AL | 0.311 | 0.505 | 1.04 | 0.067 |
| MRPS7 | 0.134 | 0.903 | 0.393 | 0.0167 |
| QTRT2 | 0.0789 | 0.102 | 0.218 | 0.0264 |

Individual results from the list:
Entry for ADSS1 under “BNIP3 mRNA, set 1”: 0.295
For “BNIP3L mRNA, set 1”, GAS2 reads 0.0407
DRAM1, NDRG1 mRNA, set 1: 0.164
Value for NRSN2 under “NDRG1 mRNA, set 1”: 0.426
